Reference: PubChem BioAssay AID540276 (National Center for Advancing Translational Sciences (NCATS), 2011)
The campaign covered roughly 300,000 compounds. About 5,400 (1.8%) were called active. The inconclusive results got no clear call from the source; some entries with a clear call stand among them for comparison. Calls follow the shape of the full dose curve; tested in HEK293 cells. Where the call is inconclusive, the potency comes from a doubtful curve fit.

Assay: qHTS for inhibitors of binding or entry into cells for Marburg Virus
Conditions: Marburg virus pseudotyped entry inhibition, cell reporter; activity change, negative = inhibition: at 37.8 µM (top of the series) unless noted
% is scaled to controls: 0 for no effect and ±100 for the full control effect; potency is read from the fitted curve at half-maximal effect.

SMILES	Potency	activity change, negative = inhibition
COc1cc2c(ccc3c4cc(OC)c(OC)cc4c[n+](C)c23)cc1O	inconclusive: 2.51 µM [inhibitor, full curve, poor fit]	
CCCc1cc2c(cc1N(C)S(=O)(=O)c1ccccc1)OCO2	inconclusive: 22.4 µM [inhibitor, single point]	
NC1(C(=O)O)CCCCC1	inconclusive: 14.1 µM [inhibitor, partial curve, poor fit]	
OCCCCNCc1ccc(OCc2ccc(Cl)cc2Cl)cc1	active: 5.8 µM	
O=C(c1cccc(C(=O)N2CCN(Cc3ccccc3)CC2)c1)N1CCN(Cc2ccccc2)CC1		inactive: -26.5%
O=C(Nc1nccs1)c1cc(S(=O)(=O)N2CCCCC2)ccc1Cl	inconclusive: 12.6 µM [activator, partial curve, poor fit]	
C=CCOC(=O)NC(c1ccc(F)c(F)c1)C(C(=O)COC)C(=O)OC (configuration not stated)	inconclusive: 5.96 µM [inhibitor, single point]	
COc1ccccc1C(CNC(=O)CNC(=O)c1ccc(Cl)c(Cl)c1)N1CCCC1 (configuration not stated)	inconclusive: 35.5 µM [inhibitor, single point]	
O=C(NCC(c1cccs1)N1CCOCC1)c1cc(S(=O)(=O)N2CCOCC2)ccc1F (configuration not stated)	inconclusive: 15.8 µM [activator, single point]	
Clc1ccc(-c2noc(CSc3nnc(-c4ccncc4)n3-c3ccccc3)n2)cc1	inconclusive: 25.9 µM [inhibitor, single point]	
CCOc1cc(C(=O)Nc2c(C)ccc3nsnc23)cc(OCC)c1OCC	inconclusive: 25.9 µM [inhibitor, single point]	
CN1CC[C@@]2(C)c3cc(OC(=O)Nc4ccccc4)ccc3N(C)[C@@H]12	inactive	
Cc1noc(C)c1S(=O)(=O)N1CCC(C(=O)N2CCN(c3ccc(F)cc3)CC2)CC1		inactive: 1.02%
O=C(C1CCCCC1)N1C[C@H](O)[C@H](n2cc(-c3ccc(F)cc3)nn2)C[C@@H]1c1ccc(Cl)cc1	active: 7.91 µM	
O=C(CCc1ccccc1)NCCS(=O)(=O)N1CCN(c2ccccc2)CC1		inactive: -8.44% [at 46.1 µM]
COC(=O)c1cnn(C(=O)c2ccccc2Br)c1N	inconclusive: 11.6 µM [activator, partial curve, poor fit]	
COc1cc(/C=N/Nc2nc(C)cc(C)n2)ccc1OC(=O)c1ccco1		inactive: 6.72%
Cc1ccc(NC(=O)C2CCCN(S(=O)(=O)c3ccc(C)cc3)C2)cc1 (configuration not stated)		inactive: 5.96% [at 46.1 µM]
CCOC(=O)N1CCC2(CC1)CC(=O)c1cc(O)ccc1O2	inconclusive: 1.41 µM [activator, partial curve, poor fit]	
O=C(Cn1c2c(sc1=O)C1c3ccccc3OCC1CS2)Nc1ccc(Cl)cc1 (configuration not stated)	inconclusive: 10 µM [inhibitor, partial curve, poor fit]	
COc1ccccc1CSc1nc2n(n1)C(c1ccccc1)C(C(=O)Nc1ccc(C)cc1)=C(C)N2 (configuration not stated)		inactive: -6.69% [at 46.1 µM]
O=C1/C(=C\c2ccc(O)cc2)SC(=S)N1Cc1ccccc1	inconclusive: 35.5 µM [inhibitor, single point]	
COc1cc2nc(C3CCC3)nc(N3CCN(c4ccccc4OC)CC3)c2cc1OC	inconclusive: 10.3 µM [inhibitor, partial curve, poor fit]	
CCC(CC)NC(=O)c1cccc(NC(=O)C(C)C)c1	inconclusive: 3.16 µM [inhibitor, single point]	

Arranged by SMILES length (low to high): some entries from above.
SMILES	Potency	activity change, negative = inhibition
COc1cc(/C=N/Nc2nc(C)cc(C)n2)ccc1OC(=O)c1ccco1		inactive: 6.72%
Cc1noc(C)c1S(=O)(=O)N1CCC(C(=O)N2CCN(c3ccc(F)cc3)CC2)CC1		inactive: 1.02%
COc1ccccc1CSc1nc2n(n1)C(c1ccccc1)C(C(=O)Nc1ccc(C)cc1)=C(C)N2 (configuration not stated)		inactive: -6.69% [at 46.1 µM]

Next results

SMILES	Potency	activity change, negative = inhibition
CCSc1nnc(-c2cccc(S(=O)(=O)N(CC)CC)c2)n1Cc1ccccc1	active: 14.6 µM	
O=C(Nc1nncs1)c1ccc(Br)c(S(=O)(=O)N2CCCC2)c1	inconclusive: 35.5 µM [activator, single point]	
COc1ccc(N2CC(=O)N(c3ccccc3)C2=S)cc1		inactive: 10.4%
CCC(O)(CC)C(=O)NN(C(=O)Nc1csc2c1CCCC2)c1ccccc1	inconclusive: 0.112 µM [inhibitor, full curve, poor fit]	
C=CCCC/C=C(/C)C(OCc1ccc(OC)cc1)C(CC/C=C(\C)C(N)=O)OC (configuration not stated)		inactive: 10.3% [at 14.2 µM]
CCCCN(CCCC)S(=O)(=O)c1ccc(NC(=O)c2ccc([N+](=O)[O-])cc2Cl)cc1	inconclusive: 22.4 µM [inhibitor, single point]	
Cc1ccc(/C=C/C(=O)Nc2cc(=O)n(C)c(=O)n2C)o1		inactive: 3.39%
Cc1ccc(OCc2cn3cccnc3n2)cc1		inactive: -34.1%
O=c1c2ccccc2cnn1-c1ccc(Cl)nn1	inconclusive: 22.4 µM [activator, single point]	
COc1cccc(-c2nnc(-c3ccccc3[N+](=O)[O-])o2)c1		inconclusive: 31.6% [activator] [at 46.1 µM]
CN(C)N1C(N)=C(C#N)C(c2cccc3ccccc23)C2=C1CC(c1ccccc1)CC2=O (configuration not stated)	inconclusive: 8.91 µM [inhibitor, partial curve, poor fit]	
CC(C)CC(c1nnnn1C(C)C)N1CCN(c2cccc(Cl)c2)CC1 (configuration not stated)	inconclusive: 11.2 µM [inhibitor, partial curve, poor fit]	
O=C(NCCc1c[nH]c2ccccc12)c1cccc(Br)c1	inconclusive: 14.1 µM [inhibitor, partial curve, poor fit]	
Cc1cc(C(=O)N/N=C/c2c3ccccc3cc3ccccc23)n[nH]1	inconclusive: 15.8 µM [inhibitor, single point]	
O=C(NCc1ccc2c(c1)OCO2)C(=O)NCC1OCCN1S(=O)(=O)c1ccc(F)cc1 (configuration not stated)	inconclusive: 10 µM [activator, single point]	
O=C(NNC(=S)Nc1ccc(F)cc1)c1cccc([N+](=O)[O-])c1	inconclusive: 6.31 µM [activator, single point]	
COc1ccccc1CN(Cc1cc2cc3c(cc2[nH]c1=O)OCCO3)Cc1nnnn1Cc1ccco1		inactive: -6.71%
CC(C)(C)c1cc(C(=O)NNC(=O)Nc2cccc(Cl)c2)n(Cc2ccccc2)n1	inconclusive: 1.58 µM [inhibitor, full curve, poor fit]	
CCCCCC(=O)OC(CN1CCCCC1)CN1CCCC1=O (configuration not stated)	inconclusive: 3.16 µM [activator, partial curve, poor fit]	
O=C(CSc1nnc(CNc2ccccc2)o1)N1CCCc2ccccc21	inconclusive: 1.26 µM [inhibitor, partial curve, poor fit]	
COCCCNCCOCCOc1ccc(C)cc1[N+](=O)[O-]	inconclusive: 10.3 µM [inhibitor, partial curve]	
Cc1ccc(-c2nnc3c(C(F)(F)F)nc4ccccc4n23)cc1		inactive: -5.67%
Cc1cc(N2C(=O)C3C4c5ccccc5C(c5ccccc54)C3C2=O)no1 (configuration not stated)	inconclusive: 0.501 µM [inhibitor, full curve, poor fit]	
O=C(CSc1nc(-c2ccco2)cc(C(F)(F)F)n1)Nc1cccnc1	inconclusive: 25.9 µM [inhibitor, single point]	

Given bar-delimited: entries from further up
SMILES | Potency | activity change, negative = inhibition
O=C(NCC(c1cccs1)N1CCOCC1)c1cc(S(=O)(=O)N2CCOCC2)ccc1F (configuration not stated) | inconclusive: 15.8 µM [activator, single point] | 
CCC(O)(CC)C(=O)NN(C(=O)Nc1csc2c1CCCC2)c1ccccc1 | inconclusive: 0.112 µM [inhibitor, full curve, poor fit] | 
O=c1c2ccccc2cnn1-c1ccc(Cl)nn1 | inconclusive: 22.4 µM [activator, single point] | 
COc1ccccc1CN(Cc1cc2cc3c(cc2[nH]c1=O)OCCO3)Cc1nnnn1Cc1ccco1 |  | inactive: -6.71%

Additional entries follow.

SMILES	Potency	activity change, negative = inhibition
Fc1ccc(NC2=NCCCCC2)cc1		inactive: -5.04% [at 46.1 µM]
CC(=O)Oc1ccc2c(C)c(CC(C)O)c(=O)oc2c1 (configuration not stated)	inconclusive: 6.31 µM [activator, single point]	
CN(C)S(=O)(=O)c1cccc(NC(=O)CN2C(=O)NC3(CCc4ccccc4C3)C2=O)c1 (configuration not stated)		inactive: -18.3%
Cc1ccc(C(=O)NCc2cccs2)cc1S(=O)(=O)N1CCCCC1	inconclusive: 32.6 µM [inhibitor, single point]	
O=c1oc2ccccc2c(O)c1Cc1cc(Cl)c2cccnc2c1O		inactive: -0.13% [at 46.1 µM]
N#Cc1c(/N=C/c2cc3ccccc3s2)sc2c1CCC2		inactive: 23.8%
O=C(NCCC1=CCCCC1)c1ccc([N+](=O)[O-])cc1	inconclusive: 35.5 µM [inhibitor, single point]	
CS(=O)(=O)Oc1ccc2c(c1)O/C(=C\c1cccnc1)C2=O		inactive: 6.48% [at 46.1 µM]
COc1ccc(-c2ccc(CO)o2)cc1N		inactive: 0% [at 14.2 µM]
Cc1ccc(N(CC(=O)NCc2ccco2)C(=O)CCC(=O)Nc2ccccn2)c(C)c1		inactive: -12.7% [at 46.1 µM]
O=C(CSc1cc(Cl)ccc1Cl)NC1CCCC1	inconclusive: 5.62 µM [inhibitor, single point]	
CCOC(=O)c1c[nH]c2c(C(F)(F)F)cccc2c1=O	inconclusive: 1.26 µM [inhibitor, single point]	
COc1ccc(CN(C(=O)c2snc(C(N)=O)c2N)C(C)C(=O)NCc2ccc(F)cc2)cc1 (configuration not stated)		inactive: 2.31% [at 46.1 µM]
O=C(N/N=C1\CCCc2ccccc21)c1ccccc1[N+](=O)[O-]		inactive: 14.7%
CCOC(=O)c1ccc(NC(=O)c2cc(F)c(F)cc2Cl)cc1		inactive: -13.8% [at 46.1 µM]
BrC(=C\c1ccccc1)/C=N/Nc1nc(N2CCOCC2)nc(N2CCOCC2)n1	active: 7.94 µM	
C=C(C)C(O)/C=C/c1ccc(C(F)(F)F)cc1 (configuration not stated)	inconclusive: 0.0188 µM [inhibitor, full curve, poor fit]	
C=CCN(CC=C)CCOc1ccccc1[N+](=O)[O-]	inconclusive: 5.62 µM [inhibitor, single point]	
COc1ccc(N2CCN(CC(O)COCCOc3ccc(Br)cc3)CC2)cc1 (configuration not stated)	inconclusive: 29.1 µM [inhibitor, single point]	
COC(=O)c1ccc(NC(=O)CNC(=O)C2CCCCC2)cc1		inactive: 17.4%
CC1CN(CCCCOc2cccc(Oc3ccccc3)c2)CC(C)O1 (configuration not stated)	inconclusive: 5.01 µM [inhibitor, partial curve, poor fit]	
COC(=O)CC1Oc2ccc(Cl)cc2-n2cc(-c3ccc(C)cc3)nc21 (configuration not stated)		inactive: 0.69% [at 46.1 µM]
CC1CCC(C(C)C)C(OC(=O)COC(=O)c2ccc(=O)[nH]c2)C1 (configuration not stated)		inactive: -14.1%
Cc1cc(C)c2cc(CN(CCCN(C)C)C(=S)NCc3ccccc3)c(=O)[nH]c2c1	inconclusive: 14.1 µM [inhibitor, single point]	
